What was measured:
[1] = Yellowness Index (YI) of cured coating, ASTM E313
[2] = Through-cure measurement in black offset ink; settings: 4 wt% PI-2 + 1 wt% photosensitizer
[3] = photoinitiator alone, 4 wt%, no photosensitizer, Lamp 1: UV Hg lamp 120 W/cm
[4] = photoinitiator alone, 4 wt%, no photosensitizer, Lamp 3: UV LED 365 nm, 16 W/cm^2
[5] = photoinitiator alone, 5 wt%, no photosensitizer, Lamp 1: UV Hg lamp 120 W/cm
[6] = photoinitiator alone, 5 wt%, no photosensitizer, Lamp 2: UV LED 395 nm, 16 W/cm^2
[7] = photoinitiator alone, 5 wt%, no photosensitizer, Lamp 3: UV LED 365 nm, 16 W/cm^2
[8] = photoinitiator alone, 4 wt%, no photosensitizer, Lamp 2: UV LED 395 nm, 16 W/cm^2
[9] = 4 wt% PI-1 + 1 wt% photosensitizer, Lamp 1: UV Hg lamp 120 W/cm, 24 hours after crosslinking
[10] = 4 wt% PI-1 + 1 wt% photosensitizer, Lamp 2: UV LED 395 nm, 16 W/cm^2, 24 hours after crosslinking
[11] = 4 wt% PI-1 + 1 wt% photosensitizer, Lamp 3: UV LED 365 nm, 16 W/cm^2, 24 hours after crosslinking
[12] = 4 wt% PI-2 + 1 wt% photosensitizer, Lamp 1: UV Hg lamp 120 W/cm, 24 hours after crosslinking
[13] = 4 wt% PI-2 + 1 wt% photosensitizer, Lamp 2: UV LED 395 nm, 16 W/cm^2, 24 hours after crosslinking
[14] = 4 wt% PI-2 + 1 wt% photosensitizer, Lamp 3: UV LED 365 nm, 16 W/cm^2, 24 hours after crosslinking

Row | Compound | yellowness index [1, 3] | yellowness index [1, 4] | yellowness index [1, 5] | yellowness index [1, 6] | yellowness index [1, 7] | yellowness index [1, 9] | yellowness index [1, 10] | yellowness index [1, 11] | yellowness index [1, 12] | yellowness index [1, 13] | yellowness index [1, 14] | further results
1 | CCOP(=O)(C(=O)c1c(C)cc(C)cc1C)c1ccccc1 (centres unmarked) [PI-4, ethyl(2,4,6-trimethylbenzoyl)-phenyl phosphinate, reference compound] | 0.30 | 0.85 | 0.57 | 0.54 | 0.74 | – | – | – | – | – | – | –
2 | COc1cccc(OC)c1C(=O)P(=O)(CC(C)CC(C)(C)C)C(=O)c1c(OC)cccc1OC (centres unmarked) [PI-5, bis(2,6-dimethoxybenzoyl)-2,4,-trimethylpentylphsophine oxide, reference compound] | 2.63 | 2.37 | 2.93 | 2.52 | 2.33 | – | – | – | – | – | – | yellowness index [1, 8]: 2.19
3 | CCSc1cc(SCC)c2cc(-c3ccccc3)c(=O)oc2c1 [S12] | – | – | – | – | – | 3.67 | 2.34 | 2.88 | 3.99 | 1.91 | 1.96 | –
4 | CCSc1ccc2cc(-c3ccccc3)c(=O)oc2c1 [S1] | – | – | – | – | – | 2.82 | 1.74 | 1.64 | 2.82 | 0.73 | 0.57 | yellowness index ([1]; 4 wt% PI-3 + 1 wt% photosensitizer, Lamp 1: UV Hg lamp 120 W/cm, 24 hours after crosslinking): 0.45; yellowness index ([1]; 4 wt% PI-3 + 1 wt% photosensitizer, Lamp 2: UV LED 395 nm, 16 W/cm^2, 24 hours after crosslinking): 0.93; yellowness index ([1]; 4 wt% PI-3 + 1 wt% photosensitizer, Lamp 3: UV LED 365 nm, 16 W/cm^2, 24 hours after crosslinking): 1.00; yellowness index ([1]; 4 wt% PI-4 + 1 wt% photosensitizer, Lamp 1: UV Hg lamp 120 W/cm, 24 hours after crosslinking): 0.59; yellowness index ([1]; 4 wt% PI-4 + 1 wt% photosensitizer, Lamp 2: UV LED 395 nm, 16 W/cm^2, 24 hours after crosslinking): 1.10; yellowness index ([1]; 4 wt% PI-4 + 1 wt% photosensitizer, Lamp 3: UV LED 365 nm, 16 W/cm^2, 24 hours after crosslinking): 0.78; yellowness index ([1]; 4 wt% PI-5 + 1 wt% photosensitizer, Lamp 1: UV Hg lamp 120 W/cm, 24 hours after crosslinking): 2.42; yellowness index ([1]; 4 wt% PI-5 + 1 wt% photosensitizer, Lamp 2: UV LED 395 nm, 16 W/cm^2, 24 hours after crosslinking): 1.62; yellowness index ([1]; 4 wt% PI-5 + 1 wt% photosensitizer, Lamp 3: UV LED 365 nm, 16 W/cm^2, 24 hours after crosslinking): 1.02; maximum through cure speed ([2]; Lamp 1: UV Hg lamp 120 W/cm): 30 m/min; maximum through cure speed ([2]; Lamp 2: UV LED 395 nm, 16 W/cm^2): 100 m/min; maximum through cure speed ([2]; Lamp 3: UV LED 365 nm, 16 W/cm^2): 95 m/min
5 | CCSc1ccc(-c2cc3ccc(SCC)cc3oc2=O)cc1 [S3] | – | – | – | – | – | 2.28 | 1.82 | 1.81 | 2.34 | 1.58 | 1.65 | –
6 | CN(C)CCSc1ccc2cc(-c3ccccc3)c(=O)oc2c1 [S4] | – | – | – | – | – | 3.77 | 2.00 | 2.22 | 2.46 | 1.24 | 1.28 | –
7 | CCSc1ccc2cc(-c3ccncc3)c(=O)oc2c1 [S11] | – | – | – | – | – | 24.19 | 21.29 | 21.04 | – | – | – | –
8 | CCOC(=O)c1cc2ccc(SCC)cc2oc1=O [S10] | – | – | – | – | – | 2.59 | 2.27 | 2.24 | 2.41 | 0.61 | 0.94 | –
9 | Cc1cc(=O)oc2cc(SCCO)ccc12 [S5] | – | – | – | – | – | 2.70 | 1.76 | 1.85 | 2.30 | 0.65 | 1.46 | –
10 | CCSc1ccc2ccc(=O)oc2c1 [S9] | – | – | – | – | – | 2.17 | 1.20 | 1.67 | 2.84 | 0.90 | 1.44 | –
11 | Cc1cc(C)c(C(=O)P(=O)(c2ccccc2)c2ccccc2)c(C)c1 [PI-3, 2,4,6-trimethylbenzoyl-diphenyl phosphine oxide, reference compound] | 0.67 | 0.93 | 0.82 | 0.62 | 1.02 | – | – | – | – | – | – | yellowness index [1, 8]: 0.92
12 | Cc1cc(C)c(C(=O)P(=O)(C(=O)c2c(C)cc(C)cc2C)c2ccccc2)c(C)c1 [PI-1, bis(2,4,6-trimethylbenzoyl) phenylphosphine oxide, reference compound] | 2.84 | 2.04 | 3.64 | 2.68 | 2.84 | – | – | – | – | – | – | yellowness index [1, 8]: 1.63
13 | CSc1ccc2cc(-c3nc4ccccc4n3C)c(=O)oc2c1 [S7] | – | – | – | – | – | 12.91 | 10.75 | 10.37 | 7.35 | 5.91 | 6.31 | –
14 | CCCCCCCCP(=O)(C(=O)c1c(C)cc(C)cc1C)C(=O)c1c(C)cc(C)cc1C [PI-2, bis(2,4,6-trimethylbenzoyl) octylphosphine oxide, reference compound] | 2.20 | 0.60 | 3.01 | 1.22 | 1.06 | – | – | – | – | – | – | yellowness index [1, 8]: 0.59
15 | CCCCC(CC)CSc1ccc2cc(-c3ccccc3)c(=O)oc2c1 (centres unmarked) [S2] | – | – | – | – | – | 2.45 | 1.77 | 1.83 | 2.20 | 1.40 | 1.35 | –
16 | Cc1c(-c2ccccc2)c(=O)oc2cc(SCCO)ccc12 [S6] | – | – | – | – | – | 2.57 | 1.31 | 1.33 | 2.13 | 1.45 | 1.17 | –

From patent publication EP4579344A1, “THIOALKYLCOUMARIN PHOTOSENSITIZERS FOR PHOTOPOLYMERIZATION” (IGM Group B.V., priority 2023, dated 2025)
